Our source for the λmax-Bound values is patent US9958439B2, “Carbohydrate detection” (RICHTER LIFE SCIENCE DEVELOPMENT AB, priority 2012, dated 2018).

Read-outs that look alike come from different tables or passages of the source.

For data set [1] the following is noted: probe with glycogen, Excitation 300-500, Emission 545. How it is done:
3 μM of each probe was applied to serial two fold dilutions of the carbohydrate of which the concentration shown here are 5 mg/ml (_.), 2.5 mg/ml (. . . ), 1.25 mg/ml (__) and 0 mg/ml (_). The excitation spectrum of the probe was analyzed for wavelengths 300-500 nm with emission read at 545 nm.
3 μM of each probe was applied to serial two fold dilutions of the carbohydrate. Respective probes were excited at wavelengths unique to each probe (specified in figure), and emission was read at 545 nm.
(§1) Serial dilutions of carbohydrate suspensions were prepared in dH2O. Concentrations ranging from 10 to 0.039 mg/ml was used for β-1,3-glucan, cellulose and chitin, whereas 5 to 0.019 mg/ml was used for sodium alginate, glucose, amylose, glycogen, cellulobiose, heparin, chondroitin sulfate A. 3 μM of each LCO probe was added to 1 ml aliquots of each concentration of carbohydrate, after which 100 μl was dispensed in triplicates into 96 well plates. Excitation spectra were collected by exciting the sample from 300 to 500 nm and detecting emission at 545 nm. Detection of carbohydrate is concluded when there is a reproducible change in λmax and/or RFU intensity with reference to the negative control. Data from three concentrations, as well as the negative control are shown for each carbohydrate as specified in respective figure.
(§2) The excitation wavelength (emission detected at 545 nm) selected for each LCO is either (1) the λmax, or (2) the excitation wavelength which suffers the lowest background. A linear regression analysis is performed to determine the relationship between the carbohydrate concentration and RFU.

The conditions of data set [2]: Excitation 300-500, Emission 545. How it is done:
The excitation spectrum of the probe was analyzed for wavelengths 300-500 nm with emission read at 545 nm.
(§3) 3 μM of each probe was applied to serial two fold dilutions of the insoluble carbohydrate. Respective probes were excited at wavelengths unique to each probe (specified in figure), and emission was read at 545 nm.
as §1, §2

The conditions of data set [3]: probe with sodium alginate, Excitation 300-500, Emission 545. As for the experimental part:
3 μM of each probe was applied to serial two fold dilutions of the insoluble carbohydrate of which the concentration shown here are 5 mg/ml (_.), 2.5 mg/ml (. . . ), 1.25 mg/ml (__) and 0 mg/ml (_). The excitation spectrum of the probe was analyzed for wavelengths 300-500 nm with emission read at 545 nm.
as §3
as §1, with “Data from three concentrations, as well as the negative control are shown for each carbohydrate as specified in respective figure.” left out
The excitation wavelength (emission detected at 545 nm) selected for each LCO is either (1) the λmax, or (2) the excitation wavelength which suffers the lowest background. […]

As to `Cl.Cl.N=C(N)NCCC[C@H](NC(=O)Cc1cc(-c2cccs2)sc1-c1ccc(-c2sc(-c3cccs3)cc2CC(=O)N[C@@H](CCCNC(=N)N)C(=O)O)s1)C(=O)O` [pHTA-Arg, penta Hydrogen Thiophene Acetic acid Arginine], the λmax-Bound in data set [1] was found to be 391 nm; in data set [2] (probe with cellulose) it was 444 nm; in data set [2] (probe with chitin) it was 417 nm; in data set [2] (probe with β-1,3-glucan), 390 nm.
As to `NCCCC[C@H](NC(=O)Cc1cc(-c2cccs2)sc1-c1ccc(-c2sc(-c3cccs3)cc2CC(=O)N[C@@H](CCCCN)C(=O)[O-])s1)C(=O)[O-].[Na+].[Na+]` [pHTA-Lys, penta Hydrogen Thiophene Acetic acid Lysine], the λmax-Bound in data set [1] is reported as 384 nm; in data set [2] (probe with cellulose), 441 nm; in data set [2] (probe with chitin), 437 nm; in data set [3], 390 nm.
On to `O=C(Cc1cc(-c2cccs2)sc1-c1ccc(-c2sc(-c3cccs3)cc2CC(=O)N[C@@H](Cc2ccc([O-])cc2)C(=O)[O-])s1)N[C@@H](Cc1ccc([O-])cc1)C(=O)[O-].[Na+].[Na+].[Na+].[Na+]` [pHTA-Tyr, penta Hydrogen Thiophene Acetic acid Tyrosine], for which the λmax-Bound in data set [1] was 405 nm; in data set [2] (probe with chitin), 411 nm; in data set [2] (probe with β-1,3-glucan), 400 nm; in data set [3], 403 nm.
